Measurements taken from the supplement of paper PMC9015667.
Counter-ions that a name gives are not always drawn. The list shows a part of the results. Repeats are few or missing, and single values can be far off.

Legend:
Assay in all cases: reduction in cell viability relative to untreated/vehicle; higher = more growth inhibition
Conditions in all cases: 200 nM; 72 h
M229P = system: M229P (parental melanoma line)
M229R = system: M229R (matched melanoma line resistant to BRAF inhibitors)
M238P = system: M238P (parental melanoma line)
M238R = system: M238R (matched melanoma line resistant to BRAF inhibitors)
M249P = system: M249P (parental melanoma line)
M249R = system: M249R (matched melanoma line resistant to BRAF inhibitors)
UACC62P = system: UACC62P (parental melanoma line)
UACC62R = system: UACC62R (matched melanoma line resistant to BRAF inhibitors)

Measured: reduction in cell viability

Cc1ccc(-c2ncn(-c3ccc(Nc4nccc(-c5cccc(N6CCOCC6)c5)n4)cc3)n2)cn1
7.84%: M229R
< 0%: M229P | M238P | M249P | M249R
24.7%: UACC62R
0.73%: M238R
9.2%: UACC62P

C=CCc1cccc(/C=N/NC(=O)CN2CCN(Cc3ccccc3)CC2)c1O
< 0%: M229P | M229R | M238P | M238R | M249P | M249R | UACC62P | UACC62R

CN(Cc1cnc2nc(N)nc(N)c2n1)c1ccc(C(=O)N[C@@H](CCC(=O)O)C(=O)O)cc1 [Methotrexate]
< 0%: M238R
82.3%: UACC62P
45.6%: M249P
26.9%: M249R
74.2%: UACC62R
59.2%: M229R
39.4%: M238P
52.9%: M229P

C#CCN(C)CC1=Cc2ccccc2Oc2ccccc21 [Omigapil]
< 0%: M229P | M229R | M238P | M238R | M249P | M249R | UACC62R
7.62%: UACC62P

CN(C)c1ccc2nc3ccc(=[N+](C)C)cc-3sc2c1 [Methylene blue]
23.2%: M238P
9.31%: UACC62P
< 0%: M238R | M249P | UACC62R
18.8%: M229R
16.7%: M249R
24.3%: M229P

C[S+]([O-])c1ccc(-c2nc(-c3ccc(F)cc3)c(-c3ccncc3)[nH]2)cc1 (stereo unspecified)
< 0%: M229P | M229R | M238P | M238R | M249P | M249R | UACC62P | UACC62R

CC(C)(C)COc1ccc(-n2cc(C(=O)O)cn2)cc1C#N [Piraxostat]
< 0%: M229P | M229R | M238P | M238R | M249P | M249R | UACC62P | UACC62R

Cc1cnc(CNC(=O)c2c(=O)c3ccc(N4CCCN(C)CC4)nc3n3c2sc2ccccc23)cn1
13%: M229R
16.3%: UACC62R
< 0%: M229P | M238R | M249P
2.41%: UACC62P
0.33%: M238P
4.04%: M249R

Cn1c2ccccc2c2c3c(c4c5ccccc5n(CCC#N)c4c21)CNC3=O
< 0%: M229P | M229R | M238P | M238R | M249P | M249R | UACC62P | UACC62R

N#CN=C(NCCCCCCOc1ccc(Cl)cc1)Nc1ccncc1
80.8%: M249P
61.7%: M238P
73.3%: M229R
45.9%: M238R
85.3%: M229P
7.25%: UACC62R
6.96%: UACC62P
84.1%: M249R

COc1ccccc1N1CCN(CC(O)COc2cccc3ccccc23)CC1 (stereo unspecified) [Naftopidil]
< 0%: M229P | M229R | M238P | M238R | M249P | M249R | UACC62P | UACC62R

CC(C)[C@@H](C)/C=C/[C@@H](C)[C@H]1CC[C@H]2C3=CC=C4C[C@@H](O)CC[C@]4(C)[C@H]3CC[C@]12C [Ergosterol]
< 0%: M229P | M229R | M238P | M238R | M249P | M249R | UACC62P | UACC62R

COc1cc2ncn(-c3cc(OCc4ccccc4C(F)(F)F)c(C(N)=O)s3)c2cc1OC
17.5%: M229R
22.1%: M229P
31.6%: UACC62P
6.44%: M249P
1%: M238R
17.2%: M249R
38.6%: UACC62R
25.7%: M238P

NCCCC(N)(C(=O)O)C(F)F (stereo unspecified) [Eflornithine Hydrochloride]
< 0%: M229P | M229R | M238P | M238R | M249P | M249R | UACC62P | UACC62R

CC1(C)CCC(c2ccc(Cl)cc2)=C(CN2CCN(c3ccc(C(=O)NS(=O)(=O)c4ccc(N[C@H](CCN5CCOCC5)CSc5ccccc5)c(S(=O)(=O)C(F)(F)F)c4)cc3)CC2)C1 [ABT-263 (Navitoclax)]
< 0%: M229P | M229R | M238P | M238R | M249P | M249R | UACC62P | UACC62R

At a glance, 3 of the compounds above.
N#CN=C(NCCCCCCOc1ccc(Cl)cc1)Nc1ccncc1
80.8%: M249P
61.7%: M238P
73.3%: M229R
45.9%: M238R
85.3%: M229P
7.25%: UACC62R
6.96%: UACC62P
84.1%: M249R

COc1ccccc1N1CCN(CC(O)COc2cccc3ccccc23)CC1 (stereo unspecified) [Naftopidil]
< 0%: M229P | M229R | M238P | M238R | M249P | M249R | UACC62P | UACC62R

CC(C)[C@@H](C)/C=C/[C@@H](C)[C@H]1CC[C@H]2C3=CC=C4C[C@@H](O)CC[C@]4(C)[C@H]3CC[C@]12C [Ergosterol]
< 0%: M229P | M229R | M238P | M238R | M249P | M249R | UACC62P | UACC62R

The listing continues.

Cc1cc2c(s1)Nc1ccccc1N=C2N1CCN(C)CC1 [Olanzapine]
< 0%: M229P | M229R | M238P | M238R | M249P | M249R | UACC62P | UACC62R

CC[C@H](/C=C/[C@@H](C)[C@H]1CC[C@H]2[C@@H]3CC=C4C[C@@H](O)CC[C@]4(C)[C@H]3CC[C@]12C)C(C)C [Stigmasterol]
< 0%: M229P | M229R | M238P | M238R | M249P | M249R | UACC62R
2.15%: UACC62P

O=C(Nc1cccnc1)N1CCC(Cc2cccc(Oc3ccc(C(F)(F)F)cn3)c2)CC1
14.5%: UACC62P
< 0%: M229P | M229R | M238P | M238R | M249P | M249R | UACC62R

CC1(C)CCC(CN2CCN(c3ccc(C(=O)NS(=O)(=O)c4ccc(NCC5CCOCC5)c([N+](=O)[O-])c4)c(Oc4cnc5[nH]ccc5c4)c3)CC2)=C(c2ccc(Cl)cc2)C1
5.43%: M229R
< 0%: M229P | M238P | M238R | M249P | M249R | UACC62P | UACC62R

COc1c(C)c2c(c(O)c1C/C=C(\C)CCC(=O)OCCN1CCOCC1)C(=O)OC2 [Mycophenolate mofetil]
8.92%: UACC62P
9.7%: M229P
< 0%: M229R | M238P | M238R | M249P | UACC62R
20%: M249R

O=C1NC(=O)/C(=C/c2ccc(-c3ccc(F)cc3O)o2)S1
< 0%: M229P | M229R | M238P | M238R | M249P | M249R | UACC62R
1.45%: UACC62P

CN1CCN(c2c(F)cc3c(=O)c(C(=O)O)cn(CCF)c3c2F)CC1 [Fleroxacin]
6.17%: M249R
< 0%: M229P | M229R | M238P | M238R | M249P | UACC62P | UACC62R

Oc1ccc(OCc2ccccc2)cc1 [Monobenzone]
5.32%: M249R
< 0%: M229P | M238P | M238R | M249P | UACC62P | UACC62R
7.58%: M229R

COc1cc(OC2CCN(C)CC2)ccc1Nc1ncc2c(n1)n(C1CCCC1)c(=O)n2C
< 0%: M229P | M229R | M238P | M238R | M249P | M249R | UACC62P | UACC62R

COc1ccc(CCC(=O)c2c(O)cc(O[C@@H]3O[C@H](CO)[C@@H](O)[C@H](O)[C@H]3O[C@@H]3O[C@@H](C)[C@H](O)[C@@H](O)[C@H]3O)cc2O)cc1O [Neohesperidin dihydrochalcone]
< 0%: M229P | M229R | M238P | M238R | M249P | M249R | UACC62R
0.04%: UACC62P

NS(=O)(=O)c1cc2c(cc1Cl)NC(C(Cl)Cl)NS2(=O)=O (stereo unspecified) [Trichlormethiazide]
< 0%: M229P | M229R | M238P | M238R | M249P | M249R | UACC62P | UACC62R

COc1ccc2c(c1)c(CC(=O)OCC(=O)O)c(C)n2C(=O)c1ccc(Cl)cc1 [Acemetacin]
< 0%: M229P | M229R | M238P | M238R | M249P | UACC62P | UACC62R
2.06%: M249R

CCN1CCN(c2ccc(Nc3cc(N(C)C(=O)Nc4c(Cl)c(OC)cc(OC)c4Cl)ncn3)cc2)CC1
< 0%: M229P | M229R | M238P | M238R | M249P | M249R | UACC62P | UACC62R

CC(NCc1ccc2c(c1)nc(NC(=O)c1ccc(-c3cn[nH]c3)s1)n2CC(C)(C)O)C(C)(C)C (stereo unspecified)
81.8%: M249R
72%: UACC62P
59.7%: M229P
59.2%: M238R
70.3%: M238P
76.5%: UACC62R
80%: M249P
67%: M229R

CC[C@H](CC[C@@H](C)[C@H]1CC[C@H]2[C@@H]3CC=C4C[C@@H](O)CC[C@]4(C)[C@H]3CC[C@]12C)C(C)C [beta-Sitosterol]
< 0%: M229P | M229R | M238P | M238R | M249P | M249R | UACC62P | UACC62R

Nc1nc(-c2nn(Cc3ccccc3F)c3ncccc23)nc(N)c1N1CCOCC1
< 0%: M229P | M229R | M238P | M238R | M249P | M249R | UACC62P | UACC62R

CCN(CC)CCNC(=O)c1c(C)[nH]c(/C=C2\C(=O)Nc3ccc(F)cc32)c1C [Sunitinib malate]
10.2%: UACC62P
< 0%: M229P | M229R | M238P | M238R | M249P | M249R | UACC62R

CN(C)CCN1C(=O)c2cccc3cc(N)cc(c23)C1=O [Amonafide]
< 0%: M229P | M229R | M238P | M238R | M249P | M249R | UACC62P | UACC62R

C[C@@H]1CC[C@@]2(OC1)O[C@H]1C[C@H]3[C@@H]4CC=C5C[C@@H](O)CC[C@]5(C)[C@H]4CC[C@]3(C)[C@H]1[C@@H]2C [Diosgenin]
< 0%: M229P | M229R | M238P | M238R | M249P | M249R | UACC62P | UACC62R

O=C(CC12CC3CC(CC(C3)C1)C2)Nc1cccc2nc(NCCNCCO)ccc12
< 0%: M229P | M229R | M238P | M238R | M249P | M249R | UACC62P | UACC62R

CN(C)Cc1c(C(=O)NCCOc2ccc(C(=O)NO)cc2)oc2ccccc12 [Abexinostat]
68.9%: UACC62R
41.7%: M249R
19.6%: M238R
15.2%: M229P
54.4%: M249P
50%: UACC62P
16.1%: M229R
45.9%: M238P

Cc1cc(Nc2ncc3c(n2)N(C)C(=O)N(c2cc(NC(=O)c4cccc(C(F)(F)F)c4)ccc2C)C3)n(C)n1 [Pluripotin]
87.8%: M229P
99.1%: UACC62P
86.9%: M238P
89.9%: UACC62R
85.6%: M238R
61.6%: M249P
66.5%: M249R
61.5%: M229R

Cc1cc(-c2ccc(CC(=O)Nc3ccc(-c4cccnc4)cc3)cc2)ccn1
< 0%: M229P | M229R | M238P | M238R | M249P | M249R | UACC62P | UACC62R

CC(C)(C#N)c1cc(Cn2cncn2)cc(C(C)(C)C#N)c1 [Anastrozole]
< 0%: M229P | M229R | M238P | M238R | M249P | M249R | UACC62P | UACC62R

CN(C)c1ccccc1CN1CCCN(Cc2ccccc2N(C)C)C1c1ccncc1
< 0%: M229P | M229R | M238P | M238R | M249P | M249R | UACC62P | UACC62R

Oc1ncnc2[nH]ncc12 [Allopurinol]
< 0%: M229P | M229R | M238P | M238R | M249P | M249R | UACC62P | UACC62R

CCC(C)(C)c1ccc(CC(C)CN2C[C@@H](C)O[C@@H](C)C2)cc1 (stereo partly specified) [Amorolfine hydrochloride]
< 0%: M229P | M229R | M238P | M238R | M249P | M249R | UACC62P | UACC62R
